The list shows a part of the results.
Experiments:
Assay in all cases: glycan array binding signal (z-score within array); higher = stronger binding
Details in all cases: glycan notation: IUPAC condensed, linker removed
[1] = target: Gal(b1-4)GlcNAc(b1-2)Man(a1-6)[Man(a1-3)]Man(b1-4)GlcNAc(b1-4)GlcNAc
How it was run: (§1)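 Arrays were curated from the Consortium for Functional Glycomics database, 3228 in total, and kept only where the protein sequence was available. Binding is expressed as a within-array Z-score. This score was averaged across arrays of the same protein sequence at different concentrations or buffers and across linkers, and negative values can be read as non-binding.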

[2] = target: Gal(b1-4)GlcNAc(b1-2)[Gal(b1-4)GlcNAc(b1-4)]Man(a1-3)[Gal(b1-4)GlcNAc(b1-2)Man(a1-6)]Man(b1-4)GlcNAc(b1-4)GlcNAc
How it was run: as §1

[3] = target: Gal(b1-4)GlcNAc(b1-2)[Gal(b1-4)GlcNAc(b1-4)]Man(a1-3)[Gal(b1-4)GlcNAc(b1-2)[Gal(b1-4)GlcNAc(b1-6)]Man(a1-6)]Man(b1-4)GlcNAc(b1-4)GlcNAc
How it was run: as §1

[4] = target: Gal(b1-4)GlcNAc(b1-2)[Gal(b1-4)GlcNAc(b1-4)]Man(a1-3)[GlcNAc(b1-4)][Gal(b1-4)GlcNAc(b1-2)Man(a1-6)]Man(b1-4)GlcNAc(b1-4)GlcNAc
How it was run: as §1

[5] = target: Gal(b1-4)GlcNAc(b1-2)[Gal(b1-4)GlcNAc(b1-4)]Man(a1-3)[GlcNAc(b1-4)][Gal(b1-4)GlcNAc(b1-2)[Gal(b1-4)GlcNAc(b1-6)]Man(a1-6)]Man(b1-4)GlcNAc(b1-4)GlcNAc
How it was run: as §1

[6] = target: Gal(b1-4)GlcNAc(b1-2)[Gal(b1-4)GlcNAc(b1-6)]Man(a1-6)[Gal(b1-4)GlcNAc(b1-2)Man(a1-3)]Man(b1-4)GlcNAc(b1-4)GlcNAc
How it was run: as §1

[7] = target: Gal(b1-4)GlcNAc(b1-2)[Gal(b1-4)GlcNAc(b1-6)]Man(a1-6)[Gal(b1-4)GlcNAc(b1-2)Man(a1-3)]Man(b1-4)GlcNAc(b1-4)[Fuc(a1-6)]GlcNAc
How it was run: as §1

[8] = target: Gal(b1-4)GlcNAc(b1-2)[Gal(b1-4)GlcNAc(b1-6)]Man(a1-6)[GlcNAc(b1-4)][Gal(b1-4)GlcNAc(b1-2)Man(a1-3)]Man(b1-4)GlcNAc(b1-4)GlcNAc
How it was run: as §1

[9] = target: Gal(b1-4)GlcNAc(b1-2)[Gal(b1-4)GlcNAc(b1-6)]Man(a1-6)[GlcNAc(b1-4)][Gal(b1-4)GlcNAc(b1-2)[Gal(b1-4)GlcNAc(b1-4)]Man(a1-3)]Man(b1-4)GlcNAc(b1-4)[Fuc(a1-6)]GlcNAc
How it was run: as §1

[10] = target: Gal(b1-4)GlcNAc(b1-3)Gal(b1-3)GalNAc
How it was run: as §1

[11] = target: Gal(b1-4)GlcNAc(b1-3)Gal(b1-3)GlcNAc
How it was run: as §1

[12] = target: Gal(b1-4)GlcNAc(b1-3)Gal(b1-4)Glc
How it was run: as §1

[13] = target: Gal(b1-4)GlcNAc(b1-3)Gal(b1-4)GlcNAc
How it was run: as §1

[14] = target: Gal(b1-4)GlcNAc(b1-3)Gal(b1-4)GlcNAc(b1-2)Man(a1-3)[Gal(b1-4)GlcNAc(b1-3)Gal(b1-4)GlcNAc(b1-2)Man(a1-6)]Man(b1-4)GlcNAc(b1-4)GlcNAc
How it was run: as §1

[15] = target: Gal(b1-4)GlcNAc(b1-3)Gal(b1-4)GlcNAc(b1-2)Man(a1-3)[Gal(b1-4)GlcNAc(b1-3)Gal(b1-4)GlcNAc(b1-2)Man(a1-6)]Man(b1-4)GlcNAc(b1-4)[Fuc(a1-6)]GlcNAc
How it was run: as §1

[16] = target: Gal(b1-4)GlcNAc(b1-3)Gal(b1-4)GlcNAc(b1-2)[Gal(b1-4)GlcNAc(b1-3)Gal(b1-4)GlcNAc(b1-6)]Man(a1-6)[Gal(b1-4)GlcNAc(b1-3)Gal(b1-4)GlcNAc(b1-2)Man(a1-3)]Man(b1-4)GlcNAc(b1-4)GlcNAc
How it was run: as §1

[17] = target: Gal(b1-4)GlcNAc(b1-3)Gal(b1-4)GlcNAc(b1-2)[Gal(b1-4)GlcNAc(b1-3)Gal(b1-4)GlcNAc(b1-6)]Man(a1-6)[Gal(b1-4)GlcNAc(b1-3)Gal(b1-4)GlcNAc(b1-2)Man(a1-3)]Man(b1-4)GlcNAc(b1-4)[Fuc(a1-6)]GlcNAc
How it was run: as §1

[18] = target: Gal(b1-4)GlcNAc(b1-3)Gal(b1-4)GlcNAc(b1-3)Gal(b1-4)GlcNAc
How it was run: as §1

[19] = target: Gal(b1-4)GlcNAc(b1-3)Gal(b1-4)GlcNAc(b1-3)Gal(b1-4)GlcNAc(b1-2)Man(a1-3)[Gal(b1-4)GlcNAc(b1-3)Gal(b1-4)GlcNAc(b1-3)Gal(b1-4)GlcNAc(b1-2)Man(a1-6)]Man(b1-4)GlcNAc(b1-4)GlcNAc
How it was run: as §1

[20] = target: Gal(b1-4)GlcNAc(b1-3)Gal(b1-4)GlcNAc(b1-3)Gal(b1-4)GlcNAc(b1-2)Man(a1-3)[Gal(b1-4)GlcNAc(b1-3)Gal(b1-4)GlcNAc(b1-3)Gal(b1-4)GlcNAc(b1-2)Man(a1-6)]Man(b1-4)GlcNAc(b1-4)[Fuc(a1-6)]GlcNAc
How it was run: as §1

[21] = target: Gal(b1-4)GlcNAc(b1-3)Gal(b1-4)GlcNAc(b1-3)Gal(b1-4)GlcNAc(b1-2)[Gal(b1-4)GlcNAc(b1-3)Gal(b1-4)GlcNAc(b1-3)Gal(b1-4)GlcNAc(b1-6)]Man(a1-6)[Gal(b1-4)GlcNAc(b1-3)Gal(b1-4)GlcNAc(b1-3)Gal(b1-4)GlcNAc(b1-2)Man(a1-3)]Man(b1-4)GlcNAc(b1-4)[Fuc(a1-6)]GlcNAc
How it was run: as §1

[22] = target: Gal(b1-4)GlcNAc(b1-3)Gal(b1-4)GlcNAc(b1-3)Gal(b1-4)GlcNAc(b1-3)Gal(b1-4)GlcNAc(b1-2)Man(a1-3)[Gal(b1-4)GlcNAc(b1-3)Gal(b1-4)GlcNAc(b1-3)Gal(b1-4)GlcNAc(b1-3)Gal(b1-4)GlcNAc(b1-2)Man(a1-6)]Man(b1-4)GlcNAc(b1-4)GlcNAc
How it was run: as §1

B1: FimA-N2 (Actinomyces oris) (protein)
chain: MHHHHHHSSGVDLGTENLYFQSNAWIYDVNVYPKNEAIDVDKTIQAQKLNGYGVGSLIKFPVESTAPTLDAKSFYKYFQLKDTLDERLSEVTATDVSLEGTPLQPTDYKVETKQQTVTVTFTAEGLKKIKAAPGKKVSAVFQGKVTKAGNGAITNRAQVISDTLYAEQPPTPETPPTDPENPPTSDEVISRWGDLSIKKVDTHQQGQTKA
[1]
  glycan array binding signal (z-score): 0.936
[2]
  glycan array binding signal (z-score): -0.799
[3]
  glycan array binding signal (z-score): 0.348
[4]
  glycan array binding signal (z-score): -0.67
[5]
  glycan array binding signal (z-score): -0.356
[6]
  glycan array binding signal (z-score): 0.365
[7]
  glycan array binding signal (z-score): -0.477
[8]
  glycan array binding signal (z-score): -0.298
[9]
  glycan array binding signal (z-score): 0.109
[10]
  glycan array binding signal (z-score): -1.33
[11]
  glycan array binding signal (z-score): -0.99
[12]
  glycan array binding signal (z-score): -0.125
[13]
  glycan array binding signal (z-score): 1.55
[14]
  glycan array binding signal (z-score): 0.469
[15]
  glycan array binding signal (z-score): 0.462
[16]
  glycan array binding signal (z-score): 1.86
[17]
  glycan array binding signal (z-score): 0.583
[18]
  glycan array binding signal (z-score): 0.154
[19]
  glycan array binding signal (z-score): 0.781
[20]
  glycan array binding signal (z-score): 1.19
[21]
  glycan array binding signal (z-score): -0.085
[22]
  glycan array binding signal (z-score): -0.799
